Reference: PubChem BioAssay AID2685 (National Center for Advancing Translational Sciences (NCATS), 2010)
The other results are listed elsewhere or left out. The main result of the screen is listed elsewhere. These columns were measured beside it and carry no call. The list favours compounds with an active or inconclusive main result. Potencies come from curve fits of mixed quality, noted in brackets.

Test: qHTS Assay for Lipid Storage Modulators in Drosophila S3 Cells;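 on cell number change: cells counted by Cell Tracker Red CMTPX staining in the red channel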
Details: BODIPY lipid droplet fluorescence, 18-24 h; for cell number change: measured here: cell count max response, cells fed with added oleic acid
Outline: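 Drosophila S3 cells got compounds at several concentrations plus oleic acid (400 uM solution). Laser-scanning cytometry with 488 nm excitation read lipid droplets at 500-530 nm and cells at 575-640 nm. Percent activity was relative to 20 uM Triacsin C.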

[1] = measured here: cell number channel AC50, cells fed with added oleic acid
[2] = measured here: lipid fluorescence (Fed channel) AC50, cells fed with added oleic acid

Structure (SMILES)	cell number change [%]	AC50 [1]	AC50 [2]
O=S(=O)(NCCSc1ccccn1)c1ccc(Cl)cc1	35.2	29.1 µM [rising, single point]	0.184 µM [falling, full curve, poor fit]
CCOC(=O)N1CCN(C(=O)C2CCN(S(=O)(=O)c3c(C)cc(C)cc3C)CC2)CC1	-17.4	0.092 µM [falling, full curve, poor fit]	1.64 µM [falling, partial curve]
O=C(Nc1ccc2ccccc2c1)Nc1ccc2snnc2c1	-49.4	3.66 µM [falling, full curve]	18.4 µM [falling, partial curve]
O=c1[nH]c(SCc2nc3ccccc3c(=O)n2-c2ccccc2C(F)(F)F)nc2ccccc12	1.43	–	29.1 µM [rising, single point]
Cc1ccc(C)c(N2CCN(C(=O)CCS(=O)(=O)c3cccc4nonc34)CC2)c1	–	–	0.146 µM [rising, full curve, poor fit]
Cc1ccc(NS(=O)(=O)c2cccc(C(=O)N3CCCC(C)C3)c2)cc1 (stereo not given)	-9.5	–	23.1 µM [falling, partial curve, poor fit]
COCCCn1c(SCc2nc3ccccc3c(=O)[nH]2)nc2ccccc2c1=O	48.7	0.651 µM [rising, full curve]	2.59 µM [rising, full curve]
CC(C)(C)NC(=O)C1CC(=O)OC1(C)C (stereo not given)	-17.5	–	–
COC(=O)c1sc(-c2ccc(Cl)cc2)cc1NC(=O)/C=C/C(=O)O	6.63	2.06 µM [rising, single point]	–
O=C(O)COC(=O)Cc1ccccc1Nc1c(Cl)cccc1Cl	1.45	–	–
CCOC(=O)c1c(C)[nH]c(NC(=O)NNC(=O)c2ccccc2Cl)c1C	4.1	–	0.259 µM [rising, full curve, poor fit]
Cc1cccc(C(=O)c2cccc(C)c2)c1	-24.1	2.59 µM [falling, partial curve, poor fit]	0.58 µM [falling, full curve, poor fit]
O=c1c2c(nc3nc(NCc4cccc5ccccc45)[nH]n13)CCC2	14.5	–	–
O=C1/C(=C\c2cc([N+](=O)[O-])ccc2O)SC(=S)N1Cc1ccc(Cl)cc1	-105	5.17 µM [falling, full curve]	3.66 µM [falling, full curve]
CC(C)OC(=O)c1nnc(Cc2ccc(F)cc2)o1	–	–	20.6 µM [rising, single point]
Cc1ccc(S(=O)(=O)N2CCN(C(=O)COC(=O)CSc3ccc(C)c(C)c3)CC2)c(C)c1	-7.63	–	–
O=C(O)CSc1ncnc2nc[nH]c12	–	–	23.1 µM [falling, single point]
S=C(NCCCCNC(=S)NCc1ccccc1)NCc1ccccc1	31.7	29.1 µM [rising, single point]	–
CCN1C(=O)c2cccc3c(S(=O)(=O)NCc4cccnc4)ccc1c23	35.6	2.31 µM [rising, full curve, poor fit]	4.11 µM [rising, single point]

Structure (SMILES)	cell number change [%]	AC50 [1]	AC50 [2]
COC(=O)CNC(=O)c1cc(-c2ccncc2)nc2ccccc12	–	–	0.58 µM [rising, single point]
O=S(=O)(Nc1cccc2ncccc12)c1cccs1	–	6.51 µM [rising, single point]	3.26 µM [rising, partial curve]
Cc1ccc(-c2cc(C(=O)NCc3ccccn3)c3ccccc3n2)cc1	72	4.61 µM [rising, full curve]	0.116 µM [falling, full curve, poor fit]
COc1ccccc1CCNC(=O)CCn1c(=O)c2cccn2c2ccc(F)cc21	-27.7	–	6.51 µM [rising, single point]
C=CCNC(=O)c1ccc(Cn2cc(C(F)(F)F)ccc2=O)cc1	-12.5	–	1.16 µM [falling, single point]
C/C(=N\N=C(N)N)c1cccc(Cl)c1	135	29.1 µM [rising, single point]	–
CSc1ccc(Cl)c(C(=O)NCCCn2ccnc2)c1	31.6	23.1 µM [rising, partial curve]	29.1 µM [rising, single point]
Cc1c(C)c2ccc(OCC(=O)NCc3ccccn3)cc2oc1=O	23	–	32.6 µM [falling, single point]
O=C(OCc1ccc(COC(=O)c2ccc(O)cc2)cc1)c1ccc(O)cc1	–	–	0.651 µM [rising, single point]
Nc1cccc(C(=O)OCC(=O)Nc2cccc3c2C(=O)c2ccccc2C3=O)c1	-64.7	9.2 µM [falling, partial curve]	18.4 µM [falling, partial curve, poor fit]
Cc1ccc(NC(=O)CN2C(=O)NC3(CCCC3)C2=O)cc1S(=O)(=O)N1CCCCC1	32.5	11.6 µM [rising, single point]	–
C/C(=N\NC(=O)c1ccco1)c1cc2ccccc2o1	0.549	–	3.66 µM [falling, single point]
COc1ccc(C2N3CC4(C)CN2CC(C)(C3)C4=O)cc1OC (stereo not given)	4.05	–	0.00461 µM [falling, full curve, poor fit]
CC(=O)C1=C(O)C(=O)N(C)C1c1ccccc1F (stereo not given)	-10.9	–	4.11 µM [falling, full curve, poor fit]
O=c1[nH]c(NNC(=S)NCc2ccccc2)nc2c1C1(CCCCC1)Cc1ccccc1-2	-27	–	23.1 µM [falling, single point]
CCOC(=O)c1sc2cc([N+](=O)[O-])cc(SCC(=O)OC)c2c1N	–	–	0.58 µM [rising, single point]
O=C(NC1CCCC1)c1cc2nc(-c3ccccc3)cc(-c3ccccc3)n2n1	11	–	20.6 µM [rising, single point]
O=C(NCC1CCCO1)c1cncc(Br)c1 (stereo not given)	-11.2	–	18.4 µM [falling, single point]
CCOc1ccc(NC(=O)COC(=O)C2(C)CC2(Cl)Cl)c([N+](=O)[O-])c1 (stereo not given)	–	6.51 µM [rising, single point]	–

Structure (SMILES)	cell number change [%]	AC50 [1]	AC50 [2]
CCC(C)c1ccccc1N1CC(C(=O)Nc2ccccc2N2CCCC2)CC1=O (stereo not given)	18.2	–	11.2 µM [rising, partial curve, poor fit]
COc1cccc(C(=O)NC2CCCc3c2cnn3-c2cc(C)cc(C)c2)c1 (stereo not given)	-35.4	0.184 µM [falling, full curve]	0.082 µM [falling, full curve]
O=C(Nn1cnnc1)c1ccccc1-c1ccccc1	-32	0.259 µM [falling, full curve, poor fit]	0.206 µM [falling, full curve]
Cc1onc(-c2c(F)cccc2Cl)c1C(=O)OCC(=O)NC(c1ccccc1)c1ccccc1	23.4	–	–
O=C(Nc1ccccc1)OCCN1CCN(Cc2ccccc2)CCC1=O	6.34	–	14.6 µM [rising, partial curve, poor fit]
Cc1cccn2c(=O)c3cc(C(=O)N4CCCC(C)C4)sc3nc12 (stereo not given)	–	–	6.51 µM [rising, partial curve]
O=C(CCNC(=O)c1ccc([N+](=O)[O-])cc1)NCc1ccco1	6.55	0.116 µM [falling, full curve, poor fit]	0.13 µM [falling, full curve, poor fit]
Cc1nccn1CCC(=O)O	2.13	–	18.4 µM [falling, single point]
COc1ccc(C(=O)Nc2cccc(-c3csc(C)n3)c2)cc1S(=O)(=O)N1CCCC1	12.9	–	9.2 µM [falling, partial curve, poor fit]
CN(CC(=O)Nc1cccc(F)c1)C(=O)C1CSC2(C)CCC(=O)N12 (stereo not given)	-50	29.1 µM [falling, single point]	–
CSc1nn2c(C(F)(F)F)cc(C(F)(F)F)nc2c1C(N)=O	-51.5	0.517 µM [falling, full curve]	0.82 µM [falling, full curve]
Cc1cccc2cc(CN(CCCN3CCOCC3)Cc3nnnn3C(C)(C)C)c(=O)[nH]c12	28.2	–	0.146 µM [rising, full curve, poor fit]
CCOC(=O)C1CCN(c2nc(C)cc(C)c2C#N)CC1	1.23	4.11 µM [falling, single point]	–
COc1ccc(C2c3c(nc[nH]c3=O)Oc3nc[nH]c(=O)c32)cc1	-12.3	–	–
CS(=O)(=O)N(Cc1ccccc1)c1ccc(C(=O)NCc2ccccc2)cc1	1.18	–	18.4 µM [rising, partial curve]
O=C(CCCCCN1C(=O)c2cccc3cccc(c23)C1=O)NCc1cccnc1	-40.2	4.11 µM [falling, full curve]	–
O=C(CN1C(=O)c2cccc3cccc1c23)N1CCN(Cc2ccc3c(c2)OCO3)CC1	-26.2	–	7.31 µM [falling, partial curve]
C=CCNC(=S)N1CCC(Cc2ccccc2)CC1	30.6	0.146 µM [rising, full curve, poor fit]	4.11 µM [rising, partial curve, poor fit]
CCOc1ccc(NC(=O)Nc2ccc3c(c2)CCC3)cc1	2.31	–	11.6 µM [rising, partial curve, poor fit]

Reprinted at random: 4 entries already listed.
Structure (SMILES)	cell number change [%]	AC50 [1]	AC50 [2]
O=C(CCCCCN1C(=O)c2cccc3cccc(c23)C1=O)NCc1cccnc1	-40.2	4.11 µM [falling, full curve]	–
C=CCNC(=S)N1CCC(Cc2ccccc2)CC1	30.6	0.146 µM [rising, full curve, poor fit]	4.11 µM [rising, partial curve, poor fit]
CSc1nn2c(C(F)(F)F)cc(C(F)(F)F)nc2c1C(N)=O	-51.5	0.517 µM [falling, full curve]	0.82 µM [falling, full curve]
CN(CC(=O)Nc1cccc(F)c1)C(=O)C1CSC2(C)CCC(=O)N12 (stereo not given)	-50	29.1 µM [falling, single point]	–
